In US9005575B2 (STC.UNM, priority 2009, dated 2015):

Test: general procedure: Fmoc solid-phase peptide synthesis; Sieber amide resin; PyBOP/DIEA (cyclization)
Details: whole synthesis

Q: Which “final purity (method not given)” value does the source give for RGD-Arg-(Arg^11)CCMSH here?
A: greater than 95%

Q: And the isolated yield (overall)?
A: 30%
